Results on 1 substance are retold here after publication PMC9655635.

Amino acid sequences for entries named in this document (tags omitted).
UniProt Q9UJQ4: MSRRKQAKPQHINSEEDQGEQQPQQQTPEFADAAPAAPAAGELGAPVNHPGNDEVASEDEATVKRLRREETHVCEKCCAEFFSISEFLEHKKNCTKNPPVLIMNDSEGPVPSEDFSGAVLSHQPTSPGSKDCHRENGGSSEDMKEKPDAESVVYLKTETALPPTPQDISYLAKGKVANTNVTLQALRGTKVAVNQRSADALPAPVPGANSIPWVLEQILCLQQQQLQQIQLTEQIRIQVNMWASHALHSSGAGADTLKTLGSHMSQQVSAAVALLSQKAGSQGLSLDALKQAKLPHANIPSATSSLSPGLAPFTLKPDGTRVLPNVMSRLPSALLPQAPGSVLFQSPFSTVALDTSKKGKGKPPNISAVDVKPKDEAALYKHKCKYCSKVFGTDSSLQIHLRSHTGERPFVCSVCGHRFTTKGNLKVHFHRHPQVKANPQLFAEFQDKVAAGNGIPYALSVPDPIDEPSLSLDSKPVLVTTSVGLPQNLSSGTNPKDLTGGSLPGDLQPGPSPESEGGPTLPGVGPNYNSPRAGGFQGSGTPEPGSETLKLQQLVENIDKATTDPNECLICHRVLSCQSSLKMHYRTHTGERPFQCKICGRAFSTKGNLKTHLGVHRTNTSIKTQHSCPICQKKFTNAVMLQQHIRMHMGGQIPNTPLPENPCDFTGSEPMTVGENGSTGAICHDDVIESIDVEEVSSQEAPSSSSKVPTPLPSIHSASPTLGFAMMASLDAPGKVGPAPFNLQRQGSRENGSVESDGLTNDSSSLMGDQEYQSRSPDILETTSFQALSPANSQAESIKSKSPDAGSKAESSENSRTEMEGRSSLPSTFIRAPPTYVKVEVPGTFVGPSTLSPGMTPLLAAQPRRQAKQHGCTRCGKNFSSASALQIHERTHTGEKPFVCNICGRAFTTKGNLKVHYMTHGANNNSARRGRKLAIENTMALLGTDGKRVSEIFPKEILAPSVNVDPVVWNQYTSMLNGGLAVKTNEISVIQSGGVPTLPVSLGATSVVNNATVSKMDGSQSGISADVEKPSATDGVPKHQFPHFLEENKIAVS
UniProt Q09028: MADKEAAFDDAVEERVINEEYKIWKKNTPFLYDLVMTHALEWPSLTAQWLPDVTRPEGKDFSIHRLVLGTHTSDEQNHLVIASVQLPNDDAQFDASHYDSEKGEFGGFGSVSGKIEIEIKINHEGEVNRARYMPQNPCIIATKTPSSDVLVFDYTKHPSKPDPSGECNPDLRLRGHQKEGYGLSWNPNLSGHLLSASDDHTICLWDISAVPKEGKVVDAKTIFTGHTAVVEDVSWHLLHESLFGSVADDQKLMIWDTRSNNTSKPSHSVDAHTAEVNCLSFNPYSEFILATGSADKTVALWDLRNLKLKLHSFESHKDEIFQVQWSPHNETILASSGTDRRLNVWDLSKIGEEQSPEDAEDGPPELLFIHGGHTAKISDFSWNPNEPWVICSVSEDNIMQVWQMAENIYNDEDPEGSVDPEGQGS

The target in the assay is SALL4 (human) (UniProt Q9UJQ4). The experiment in a line: co-IP; SALL4 antibody incubated with 500 ug of cell lysate (RIPA lysis buffer) for 2 h at 4 °C, then Protein A/G PLUS-Agarose beads overnight at 4 °C; beads washed three times with lysis buffer; blot developed against RBBp4; control IgG as negative control.

Results are given in words; binding and its absence hold for the method and conditions named. In cells and extracts the contact can be indirect. Some entries that bind do so weakly or less than the wild type.

With “retinoblastoma binding protein 4 (RBBp4) (from UniProt Q09028 1-425)”, the binding entry is on record as “binds”.
